PubChem BioAssay AID504764 | Drosophila RNAi Screening Center, 2011
The screen tested about 22,000 reagents; this is a random part of those that have a named target and a result. Over the whole deposit, 403 (1.9%) were called active. 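Unnormalised raw counts per well; ratio z-scores behind the hit calls and whether each hit raises or lowers signal are not deposited.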 Names joined by + are all predicted targets of the reagent. The record does not give: the amount of reagent.

Aim: 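Genome-wide screen for regulators of Notch-driven gene expression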 (primary screen)
System: Drosophila Kc167 cells
Knock-down reagent: long dsRNA against Drosophila genes
Duration: about 5 days (4 days dsRNA, then 24 h after transfection)
Conditions: transfection of constitutively active membrane-tethered Notch lacking the extracellular domain, read 24 h later
Detection: 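Light from a Notch-responsive E(spl)m3 luciferase reporter under active Notch, with control-promoter and no-Notch reporter wells to normalise; raw counts from paired wells a and b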
Scale: induced reporter light, run 1, well a and induced reporter light, run 1, well b: higher = more light from the Notch target reporter with active Notch; control promoter light, run 1, well a and control promoter light, run 1, well b: higher = more light from the viral control promoter (cell number, transfection, viability); uninduced reporter light, run 1, well a: higher = more light from the Notch target reporter without active Notch
Hit rule: 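Hit if the duplicate-averaged log2 ratio of induced to control-promoter light gives a plate-wise z beyond ±2, or induced to uninduced beyond ±1.8; weak-control or discordant-duplicate wells dropped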
Meaning of the calls: active = modifier hit (raised or lowered Notch signal); inactive = not a hit

gene | amplicon | induced reporter light, run 1, well a | induced reporter light, run 1, well b | control promoter light, run 1, well a | control promoter light, run 1, well b | uninduced reporter light, run 1, well a | call
CG14453 | DRSC11710 | 1.18e5 | 1.14e5 | 87820 | 1.03e5 | 6365 | inactive
Chro (Chromator) | DRSC11630 | 1.22e5 | 1.21e5 | 1.10e5 | 1.58e5 | 11040 | inactive
CG9192 | DRSC08639 | 1.06e5 | 1.39e5 | 2.06e5 | 1.43e5 | 5000 | inactive
CG1791 | DRSC18141 | 1.72e5 | 1.67e5 | 2.23e5 | 2.17e5 | 13905 | inactive
dpy (dumpy) | DRSC00233 | 1.27e5 | 1.18e5 | 1.40e5 | 1.64e5 | 8590 | inactive
dpy (dumpy) | DRSC00234 | 1.46e5 | 1.25e5 | 1.54e5 | 1.64e5 | 8795 | inactive
dpy (dumpy) | DRSC00472 | 1.57e5 | 1.80e5 | 2.17e5 | 1.90e5 | 10895 | inactive
CG34280 | DRSC13229 | 56730 | 60450 | 80685 | 73895 | 9195 | inactive
ND-30 (NADH dehydrogenase (ubiquinone) 30 kDa subunit) | DRSC08243 | 73530 | 73920 | 62965 | 21732 | 5615 | inactive
CG16727 | DRSC15139 | 2.33e5 | 1.87e5 | 2.10e5 | 1.92e5 | 11275 | active
CG31886 | DRSC03248 | 2.49e5 | 2.60e5 | 1.91e5 | 1.93e5 | 19540 | inactive
CG33521 | DRSC17179 | 1.03e5 | 1.21e5 | 1.40e5 | 1.61e5 | 9885 | inactive
CG33521 | DRSC17211 | 87335 | 1.19e5 | 2.18e5 | 1.89e5 | 9532 | inactive
CG17380 | DRSC15230 | 1.28e5 | 1.50e5 | 1.44e5 | 1.56e5 | 11900 | inactive
CG1368 | DRSC19537 | 2.25e5 | 1.90e5 | 2.24e5 | 2.77e5 | 14600 | inactive
CG6012 | DRSC02921 | 1.32e5 | 1.39e5 | 1.47e5 | 1.73e5 | 11835 | inactive
DIP-beta (Dpr-interacting protein beta) | DRSC20461 | 2.55e5 | 2.03e5 | 2.64e5 | 3.21e5 | 14705 | inactive
DIP-beta (Dpr-interacting protein beta) | DRSC20489 | 73645 | 79070 | 60845 | 1.12e5 | 10470 | inactive
DIP-beta (Dpr-interacting protein beta) | DRSC20490 | 90095 | 79115 | 99155 | 1.12e5 | 10035 | inactive
DIP-beta (Dpr-interacting protein beta) | DRSC20505 | 1.14e5 | 86725 | 1.03e5 | 1.18e5 | 11885 | inactive
Rhp (Rhophilin) | DRSC20279 | 1.30e5 | 1.10e5 | 1.20e5 | 1.08e5 | 13735 | inactive
CG2685 | DRSC18463 | 63215 | 55585 | 78320 | 93130 | 3050 | inactive
TwdlD (TweedleD) | DRSC14738 | 1.70e5 | 1.38e5 | 2.50e5 | 2.03e5 | 14295 | inactive

Reprinted from above for reference:
gene | amplicon | induced reporter light, run 1, well a | induced reporter light, run 1, well b | control promoter light, run 1, well a | control promoter light, run 1, well b | uninduced reporter light, run 1, well a | call
DIP-beta (Dpr-interacting protein beta) | DRSC20489 | 73645 | 79070 | 60845 | 1.12e5 | 10470 | inactive
DIP-beta (Dpr-interacting protein beta) | DRSC20490 | 90095 | 79115 | 99155 | 1.12e5 | 10035 | inactive
DIP-beta (Dpr-interacting protein beta) | DRSC20505 | 1.14e5 | 86725 | 1.03e5 | 1.18e5 | 11885 | inactive
Rhp (Rhophilin) | DRSC20279 | 1.30e5 | 1.10e5 | 1.20e5 | 1.08e5 | 13735 | inactive
CG2685 | DRSC18463 | 63215 | 55585 | 78320 | 93130 | 3050 | inactive
TwdlD (TweedleD) | DRSC14738 | 1.70e5 | 1.38e5 | 2.50e5 | 2.03e5 | 14295 | inactive

Further results follow:
gene | amplicon | induced reporter light, run 1, well a | induced reporter light, run 1, well b | control promoter light, run 1, well a | control promoter light, run 1, well b | uninduced reporter light, run 1, well a | call
CG2310 | DRSC15438 | 1.58e5 | 1.33e5 | 2.25e5 | 2.18e5 | 12205 | inactive
CG15014 | DRSC08468 | 2.22e5 | 2.48e5 | 2.98e5 | 2.60e5 | 12710 | inactive
wun2 (wunen-2) | DRSC07566 | 1.77e5 | 1.55e5 | 2.05e5 | 1.98e5 | 14485 | inactive
CG10936 | DRSC05669 | 1.28e5 | 1.25e5 | 1.82e5 | 1.65e5 | 10620 | inactive
CG10936 | DRSC05670 | 82665 | 94135 | 1.44e5 | 1.11e5 | 8555 | inactive
CG10936 | DRSC06018 | 1.04e5 | 68490 | 78160 | 86440 | 9095 | inactive
colt (congested-like trachea) | DRSC00808 | 1.36e5 | 1.59e5 | 1.73e5 | 1.70e5 | 14745 | inactive
Polr3C (RNA polymerase III subunit C) | DRSC14490 | 88425 | 93690 | 73740 | 69350 | 9435 | inactive
Mhcl (Myosin heavy chain-like) | DRSC13130 | 1.39e5 | 1.39e5 | 2.22e5 | 2.24e5 | 10792 | inactive
Mhcl (Myosin heavy chain-like) | DRSC14216 | 2.23e5 | 2.35e5 | 2.35e5 | 2.62e5 | 17938 | inactive
Mhcl (Myosin heavy chain-like) | DRSC16753 | 1.92e5 | 1.81e5 | 2.29e5 | 2.03e5 | 15380 | inactive
CG30413 | DRSC04001 | 1.50e5 | 1.57e5 | 2.54e5 | 2.53e5 | 8255 | inactive
CG11566 (retired record) + stg1 | DRSC20473 | 4835 | 6325 | 7635 | 8035 | 5530 | inactive
CG11566 (retired record) + stg1 | DRSC20481 | 99590 | 96640 | 1.11e5 | 1.37e5 | 9960 | inactive
CG11566 (retired record) + stg1 | DRSC20482 | 84080 | 84245 | 1.14e5 | 92235 | 10030 | inactive
CG11566 (retired record) + stg1 | DRSC20483 | 1.07e5 | 1.12e5 | 1.11e5 | 1.08e5 | 11160 | inactive
CG43339 + CG43338 | DRSC02466 | 2.44e5 | 2.36e5 | 2.15e5 | 1.98e5 | 17855 | inactive
CG7691 | DRSC16287 | 2.35e5 | 1.90e5 | 2.62e5 | 2.23e5 | 13540 | inactive
Mppe (Metallophosphoesterase) | DRSC07296 | 2.15e5 | 1.86e5 | 1.63e5 | 1.81e5 | 14200 | inactive
mia (meiosis I arrest) | DRSC12137 | 1.68e5 | 1.70e5 | 1.06e5 | 97870 | 13342 | inactive
CG13215 | DRSC06337 | 1.44e5 | 1.47e5 | 1.54e5 | 1.90e5 | 13590 | inactive
S-Lap5 (Sperm-Leucylaminopeptidase 5) | DRSC06732 | 1.07e5 | 1.11e5 | 1.18e5 | 1.25e5 | 10235 | inactive
CG14950 (retired record) | DRSC08409 | 1.06e5 | 1.26e5 | 1.76e5 | 1.77e5 | 7650 | inactive
CG15144 | DRSC02445 | 1.20e5 | 1.39e5 | 1.42e5 | 1.72e5 | 11755 | inactive
scu (scully) | DRSC20369 | 80885 | 79980 | 73190 | 84365 | 9475 | inactive
CG11134 | DRSC19384 | 1.83e5 | 1.50e5 | 2.76e5 | 2.57e5 | 11455 | inactive
laza (lazaro) | DRSC11661 | 1.32e5 | 1.49e5 | 71145 | 88945 | 8880 | inactive
Tab2 (TAK1-associated binding protein 2) | DRSC07481 | 1.06e5 | 87225 | 1.13e5 | 1.22e5 | 8780 | inactive
CG42516 + Pbp49 | DRSC06073 | 1.83e5 | 1.81e5 | 1.90e5 | 1.95e5 | 14865 | inactive
Gyg (Glycogenin) | DRSC03850 | 32280 | 48010 | 36330 | 48830 | 3780 | inactive
Gyg (Glycogenin) | DRSC04556 | 49260 | 48200 | 60815 | 91510 | 2432 | inactive
nyo (nyobe) | DRSC15029 | 1.49e5 | 1.35e5 | 1.87e5 | 3.09e5 | 10915 | inactive
nyo (nyobe) | DRSC15030 | 1.03e5 | 1.10e5 | 1.93e5 | 1.89e5 | 8850 | inactive
rau | DRSC03125 | 1.87e5 | 2.10e5 | 1.95e5 | 1.84e5 | 12820 | inactive
CG7202 | DRSC11818 | 1.26e5 | 1.11e5 | 1.30e5 | 1.02e5 | 4780 | inactive
TTLL3B (Tubulin tyrosine ligase-like 3B) | DRSC02133 | 1.49e5 | 1.42e5 | 1.63e5 | 1.41e5 | 9095 | inactive
CG32987 | DRSC22373 | – | – | – | – | – | active
Mf (Myofilin) | DRSC16120 | 1.87e5 | 2.23e5 | 1.84e5 | 1.86e5 | 15645 | inactive
CG3149 | DRSC17732 | 2.09e5 | 2.03e5 | 2.44e5 | 2.20e5 | 17060 | inactive
CG1910 | DRSC15400 | 1.66e5 | 1.78e5 | 2.64e5 | 2.44e5 | 13585 | inactive
lsn (larsen) | DRSC16081 | 1.51e5 | 1.18e5 | 1.78e5 | 1.24e5 | 9900 | inactive
